Data source: PubChem BioAssay AID1671195 (Yale University, 2021)
Purpose: 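Regulators of LDL receptor activity judged by labelled LDL uptake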 (primary screen). Cells: human Huh7 hepatoma cells. Knock-down reagent: siRNA pool against human genes, 18 nM. Timing: about 2 to 2.5 days of knockdown, then 8 h LDL uptake. Treatment: DiI-labelled LDL at 30 µg/ml for 8 h, in lipoprotein-deficient serum medium. Detection: 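Per-cell DiI-LDL intensity by automated imaging; well means scaled to the plate median and given as a robust z-score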. Direction: robust z-score: higher = more LDL uptake after knockdown. Hit rule: 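a gene counts as active if at least two replicate z-scores exceed ±2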.
Here is a random part of about 22,000 reagents tested. Over the whole deposit, about 1,510 (6.9%) were called active. 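Active includes knockdowns raising or lowering LDL uptake; positive z-scores mean more uptake, negative mean less.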 A number with no mark means an inactive call. No sequences are given here.

target	robust z-score, replicate 1	robust z-score, replicate 2	robust z-score, replicate 3
LOC440763 (retired record)	-1.24	-1.48	-1.32
UNC79	-1.84	-2.18	0.0668
NOX1	0.517	0.797	1.46
FLJ33534	0.133	0.362	0.396
HCST	-0.352	-1.01	-0.815
SLC25A5P2	-1.73	-1.7	-1.63
ITGB4	-0.312	-0.461	-0.45
HEXA-AS1	0.819	1.05	1.62
CRABP2	1.9	1.05	1.81
ALYREF	-1.3	-0.9	-0.97
FAM219A	0.254	0.097	-0.0706
PDPK1	-0.73	-1.17	-0.267
PRPSAP1	-0.474	-0.123	0.106
GRIA2	-1.1	-0.713	-0.0347
ATP11A	0.563	0.486	0.381
AP2A2	-0.354	-0.317	0.151
AARSD1	-0.33	0.0353	0.0977
TRIO	0.604	0.839	0.92
NTPCR	-0.00461	0.278	-0.109
LILRA4	-1.35	-1.65	-1.61
ZNF579	0.0348	0.0178	0.284
LOC440286 (retired record)	-0.23	-0.311	0.0343
PLP2	-1.11	-1.01	-0.542
CREBZF	0.862	1.47	0.822
ALAS1	-0.407	-0.116	-0.44
RAB40AL	-1.05	-0.899	-0.957
MGST2	1.97 (active)	1.56	2.7
RNF148	0.96	0.515	0.242
CCNB2	-0.378	0.715	-0.325
RXRG	2.12 (active)	2.33	2.26
KLHL18	5.21 (active)	4.51	5.31
SLC25A40	0.127	-0.353	-0.577
OR1N2	-1.16	-1.01	-1.91
CLASP2	0.127	0.0477	0.81
ZNF827	1.17	0.411	0.997
SLC5A2	0.346	1.32	1.14
BRIP1	2.83 (active)	4.02	3.81
H2AC4	2.38	-0.501	-0.0869
FAM163A	1.74	0.132	0.123
ZNF295-AS1	-0.603	-1.12	-0.954
MPV17L	-0.776	-1.12	-1.02
LOC389438 (retired record)	1.58	1.98	1.87
LOC389069 (retired record)	-1.37	-1.56	-1.75
HDAC8	1.58	1.21	0.294
TRIP6	0.263	-0.0671	0.415
B4GALNT1	-1.52	-2.63	-0.702
ITGB3	-0.266	0.0232	-0.201
CLCN2	3.34 (active)	1.67	3.12
MILR1	-1.29	-1.14	-1.31
BHMT2	0.0851	0.741	0.418
KNOP1	0.77	1.45	1.1
TPGS1	-1.07	-0.0666	-0.0306
SELENOS	0.434	-1.94	0.218
LOC440105 (retired record)	-0.527	-0.17	0.0386
CSNK2A2	-0.305	-0.417	0.25
LDHB	-1.17	-1.18	-1.52
CARS2	2.91 (active)	1.97	3.06
LOC440770 (retired record)	1.51	1.87	1.48
STH	-0.39	-0.185	-0.346
THOC3	-0.582	-0.961	-0.942
OR5M11	-0.52	-0.117	-0.293
MBD3L1	-0.64	-0.904	-1.1
CHLSN	-0.791	-0.407	-0.438
INPP5K	-1.89	-1.86	-1.95
LOC389230 (retired record)	-0.743	-0.261	-0.436
NFX1	-0.371	-1.13	-0.759
LINC02579	-0.682	-0.572	-0.242
ANTXR1	0.223	-0.41	0.27
LOC388334 (retired record)	-1.71	-1.54	-1.33
MUTYH	0.0457	-0.496	-0.268
EPHX4	0.904	0.726	0.965
SMTNL2	-0.0107	-0.0581	-0.305
ADGRV1	-1.16	-1.45	-1.12
SNRK	-0.0477	-0.333	-0.447
IL20RB	-0.128	1.48	-0.761
IMP4	-0.0621	0.0958	0.0646
SPEG	-1.59	-1.29	-1.68
PEX16	0.333	1.63	1.01
APLNR	-1.73	1.18	1
LOC388814 (retired record)	-2.01 (active)	-2.19	-2.17
MAFG	-1.29	-1.24	-1.13
TTLL10	0.201	0.491	0.875
TTC32	1.14	0.27	-0.976
COX18	0.926	0.259	-0.408
ATP5ME	-0.185	0.0152	0.00481
SLC20A1-DT	-0.518	-0.521	-0.897
SEPHS1	-1.91	-1.95	-1.66

Entries above whose target name starts with R or r (3):
target	robust z-score, replicate 1	robust z-score, replicate 2	robust z-score, replicate 3
RAB40AL	-1.05	-0.899	-0.957
RNF148	0.96	0.515	0.242
RXRG	2.12 (active)	2.33	2.26
